Data on 2 molecules can be found in publication PMC2398774.

This assay concerns the target GST-Su(H). Kind of assay: pull-down; GST-fusion proteins on glutathione-agarose beads mixed (1:1) with 35S-labelled in vitro translated proteins in lysis buffer (50 mM Tris pH 8.0, 150 mM NaCl, 0.1% SDS, sodium deoxycholate, protease inhibitors), 1 h at 4°C; SDS-PAGE, autoradiography; only the target purified.

These are yes or no findings as the source states them, for the method shown. Binding seen in cells or lysates may run through a third protein. Binding can be weak; no strength is given.

B1: Foxc2 (protein, UniProt Q61850 1-494)
chain: MQARYSVSDPNALGVVPYLSEQNYYRAAGSYGGMASPMGVYSGHPEQYGAGMGRSYAPYHHQPAAPKDLVKPPYSYIALITMAIQNAPEKKITLNGIYQFIMDRFPFYRENKQGWQNSIRHNLSLNECFVKVPRDDKKPGKGSYWTLDPDSYNMFENGSFLRRRRRFKKKDVPKDKEERAHLKEPPSTTAKGAPTGTPVADGPKEAEKKVVVKSEAASPALPVITKVETLSPEGALQASPRSASSTPAGSPDGSLPEHHAAAPNGLPGFSVETIMTLRTSPPGGDLSPAAARAGLVVPPLALPYAAAPPAAYTQPCAQGLEAAGSAGYQCSMRAMSLYTGAERPAHVCVPPALDEALSDHPSGPGSPLGALNLAAGQEGALGASGHHHQHHGHLHPQAPPPAPQPPPAPQPATQATSWYLNHGGDLSHLPGHTFATQQQTFPNVREMFNSHRLGLDNSSLGESQVSNASCQLPYRATPSLYRHAAPYSYDCTKY
modifications: [35S]methionine-labelled
For the molecule B1, the binding result was “binds”.

B2: Foxc1 (protein, UniProt Q61572 1-553)
chain: MQARYSVSSPNSLGVVPYLGGEQSYYRAAAAAAGGGYTAMPAPMSVYSHPAHAEQYPGSMARAYGPYTPQPQPKDMVKPPYSYIALITMAIQNAPDKKITLNGIYQFIMDRFPFYRDNKQGWQNSIRHNLSLNECFVKVPRDDKKPGKGSYWTLDPDSYNMFENGSFLRRRRRFKKKDAVKDKEEKGRLHLQEPPPPQAGRQPAPAPPEQAEGSAPGPQPPPVRIQDIKTENGTCPSPPQPLSPAAALGSGSAATVPKIESPDSSSSSLSSGSSPPGSLPSARPLSLDAAEPAPPPQPAPPPHHSQGFSVDNIMTSLRGSPQGSAAELGSGLLASAAASSRAGIAPPLALGAYSPGQSSLYSSPCSQSSSAGSSGGGGGGGGGGGGSSSAAGTGGAATYHCNLQAMSLYAAGERGGHLQGPAGGAGSAAVDDPLPDYSLPPATSSSSSSLSHGGGGQEASHHPASHQGRLTSWYLNQAGGDLGHLASAAAAAAAAGYPGQQQNFHSVREMFESQRIGLNNSPVNGNSSCQMAFPASQSLYRTSGAFVYDCSKF
modifications: [35S]methionine-labelled
In the case of B2, the binding entry is recorded as “no binding”.
